# In the supplement of paper PMC3334620:
# The full ranking holds about 33,000 sequences; the median of “E-score (-0.5 to 0.5)” is about -0.0014, and the highest 2% start at about 0.25. Some of the results follow.
# Target: T1, Cad1 (UniProt P24813)
# T1 sequence: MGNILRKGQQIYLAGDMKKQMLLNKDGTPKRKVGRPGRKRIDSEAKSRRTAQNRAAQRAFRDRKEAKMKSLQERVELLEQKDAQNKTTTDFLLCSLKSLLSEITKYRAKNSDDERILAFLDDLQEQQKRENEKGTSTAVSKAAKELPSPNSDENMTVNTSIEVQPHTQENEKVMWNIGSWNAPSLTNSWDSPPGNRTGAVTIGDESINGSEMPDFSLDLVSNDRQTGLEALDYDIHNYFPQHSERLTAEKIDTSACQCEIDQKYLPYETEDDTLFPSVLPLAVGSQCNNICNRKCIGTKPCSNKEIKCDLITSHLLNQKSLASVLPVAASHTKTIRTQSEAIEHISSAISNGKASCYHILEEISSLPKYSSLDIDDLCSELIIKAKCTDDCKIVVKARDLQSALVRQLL
# Test: PBM E-score (8-mer binding enrichment) (E-score (-0.5 to 0.5)); higher = stronger / more preferred TF binding
# Conditions: protein concentration: 100 nM; construct: GST-full length
# Method in brief: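 Yeast transcription factors, full-length or as DNA-binding domains, were expressed with a GST tag using PURExpress in vitro transcription/translation. At about 100-200 nM they were applied to universal all-10-mer Agilent arrays, double-stranded by primer extension on fresh or once-stripped slides. Fluorescent anti-GST detected bound protein, and masliner normalised the scans. E-scores for ungapped eight-base words, pooled with reverse complements, came from the Universal PBM Analysis Suite.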
row,Sequence,PBM E-score
1,GCCAGCAC,-0.0561
2,CAACTACC,-0.14
3,CGAGCGCA,0.198
4,TAGACGCA,-0.0612
5,ACTTAAAC,0.126
6,ATGCCCGC,-0.0876
7,CACATGAG,-0.186
8,CATGAAAG,-0.0263
9,CATACGGA,0.0805
10,CCGGGCGC,-0.07
11,AGCGAGGA,-0.0275
12,GCTGCAAC,0.124
13,GCGCAAAC,0.101
14,ATGTGTTC,0.0917
15,AGGGCAAA,0.0746
16,GGGCAGAA,0.123
17,GCAGAGGC,-0.185
18,AAATAACG,0.184
19,ATCGCCTG,-0.13
20,CGGGCGAG,0.0379
21,AGACGCAA,0.116
22,CTCGTAGC,0.0352
23,ATCTGTTC,-0.075
24,CACTTTAG,-0.106
25,ATTGAGAC,0.0904

row,Sequence,PBM E-score
1,GGATGTAA,0.0961
2,GGATTCTA,0.0766
3,ATCGCAGG,-0.0774
4,AGCAGATC,0.256
5,ATATTTGC,0.306
6,GAGCGTGC,0.0985
7,AGACTTGA,-0.0266
8,GCATGCGC,0.126
9,AGTACAAT,0.224
10,AACACGCA,0.0682
11,CGTCTCCC,-0.163
12,TGTTGGAA,0.192
13,CATGCCCC,-0.0844
14,GGCTCAAC,-0.143
15,AGCGGGTA,-0.0961
16,CCGAAATC,0.00772
17,CCCTTACG,-0.22
18,CGTCTTAC,-0.00873
19,TGTGCAAA,-0.0213
20,CATATCTA,0.142
21,AGTGTCGG,0.04
22,CCTGTACG,-0.107
23,CAATCGGA,0.259
24,CACGTCGG,0.00033
25,CACGCCAA,-0.0204

# Shown tab-delimited: entries from further up.
row	Sequence	PBM E-score
5	ATATTTGC	0.306
6	GAGCGTGC	0.0985
7	AGACTTGA	-0.0266
8	GCATGCGC	0.126

# (next part)

row,Sequence,PBM E-score
1,ACGTCAGT,0.0108
2,GACGTATA,-0.0828
3,AGTGGTTC,0.00281
4,TTACCAAA,0.115
5,GATGAGGC,-0.17
6,ATAAAAGC,0.102
7,CCGATCGC,0.0503
8,AGAGAATC,-0.0473
9,CGAACACA,0.232
10,TCATCGAA,0.0816
11,AGTATGAT,0.195
12,GGGAGATA,-0.0835
13,GGATTGCA,0.044
14,AAAGGTGA,-0.0406
15,ACGTTTTG,-0.0551
16,CGCGGTTA,-0.00191
17,GGCGAGCA,-0.00035
18,CCGGTGAG,-0.145
19,GTCTAAAA,-0.144
20,GCTAATAA,0.00494
21,AGAAAAGG,-0.131
22,GATGATAC,-0.0174
23,TACATACA,0.0815
24,ATAAACGG,0.223
25,AATCGTGA,0.0886

row,Sequence,PBM E-score
1,CCTATCCG,-0.0612
2,CGGCGACG,0.089
3,CGCGTTAA,0.0858
4,GCCCGCGC,0.244
5,AATCGTCA,0.135
6,CAGGCAGG,-0.102
7,ACCGTAGG,-0.311
8,CACCCCTG,-0.288
9,CAACCATA,0.0087
10,CTCAGTCC,-0.0538
11,CGCGTGCA,0.0727
12,CGAATCAA,0.224
13,CAGCTATA,-0.0488
14,GCGTAAGC,0.215
15,CCGTGTAG,-0.0745
16,ATGCATAG,-0.0645
17,CGCTAAGA,0.068
18,GCCTCTAC,-0.289
19,GAAGCGCA,0.0481
20,AGCCCTTA,-0.11
21,GTCGTAAC,-0.107
22,ACCGATAA,0.196
23,AGGGTCAA,0.0208
24,CCAGCAGC,-0.103
25,GGTAATAC,0.111

# In another format: entries from further up
row | Sequence | PBM E-score
16 | ATGCATAG | -0.0645
17 | CGCTAAGA | 0.068
18 | GCCTCTAC | -0.289

# (continued)

row,Sequence,PBM E-score
1,ATAAGTTA,0.156
2,AGCTCTAC,-0.145
3,CTGTAGTC,-0.0916
4,ACTAGCAG,-0.038
5,CCGAGAAA,0.193
6,ATGCTGCC,0.0614
7,CCTTGCCA,-0.117
8,ATACTAAG,0.105
9,GAATTCCC,-0.0879
10,AATTGCTC,-0.0256
11,ACTGATCA,0.0707
12,ATGACCGC,-0.15
13,CTTTCCGA,0.0276
14,CGCGAACA,0.186
15,CATCGCAG,-0.0654
16,GCCGTCCA,0.163
17,AGACGCTG,-0.11
18,GGGTGTTA,0.0307
19,CCGCTTTA,0.0678
20,GCCCGAAA,0.0495
21,ATAGATTA,0.18
22,AACGACAA,0.134
23,AAATGATG,0.0607
24,GACGGAGC,-0.197
25,ACAATCAA,0.158

row,Sequence,PBM E-score
1,CCCTAGCG,-0.265
2,AATGCTCA,-0.0337
3,CCGTTATC,0.00035
4,AGCGAAGG,-0.0765
5,CTCCCTAA,-0.0842
6,CACATTCG,0.0042
7,ATTACCGA,0.102
8,AGTCCACG,-0.113
9,ATCGGTGA,0.0553
10,AGATTATC,0.00491
11,CGCCCCTC,-0.332
12,CACGGGTC,-0.122
13,GGATTCCA,0.112
14,GACGGTAC,0.0123
15,ATCACATA,0.174
16,CACCATGA,-0.0956
17,CAGATCTA,0.00832
18,GATGAGCC,-0.0972
19,ATGATAAC,0.0889
20,GGCTTCCA,-0.241
21,ACAACGTC,-0.0572
22,ATGCAACG,0.0514
23,AGGTATGA,-0.0176
24,CCAGAACG,0.0801
25,ACCGGTCA,0.0275

row,Sequence,PBM E-score
1,ATCGCCCG,-0.0312
2,AGCAGGCT,-0.144
3,AATTGCCC,0.097
4,CTGACTTA,0.201
5,ACTTCTCT,-0.179
6,ACTGTCAA,-0.0813
7,CTTGAGTC,-0.118
8,ATAGAGCG,-0.162
9,ATGGTGCA,-0.0972
10,CTTACATC,-0.00465
11,GAGACGGA,0.0596
12,TACCGTGA,-0.118
13,CAGCTGTA,-0.0293
14,CACCGGTA,-0.13
15,TATTCGAA,0.112
16,CTAGTCCC,-0.194
17,AATGTACT,0.111
18,TGACGGCA,-0.0914
19,CAACAGAC,0.125
20,ACGGCTCG,0.0865
21,GTCAACAC,0.169
22,CAGAAAAC,0.0678
23,GGTACACC,-0.163
24,AATAGAAT,0.00914
25,ATCACTAG,-0.0684

row,Sequence,PBM E-score
1,CACTGGTA,-0.0465
2,CCATCGTC,-0.0595
3,GTACGCAC,-0.0801
4,GAGTCCAA,-0.0415
5,AAGAACCA,-0.00253
6,AATACGCT,0.141
7,AATTCAGT,-0.051
8,CAGGGAAC,-0.0723
9,TGCGACCA,-0.0148
10,GGCTCCGA,-0.0167
11,AAATGTGC,0.201
12,TCTCGGAA,0.103
13,AATTAAGG,0.0253
14,CATTCGAG,0.0511
15,CGTGCAGA,0.0434
16,CCGTGTGA,-0.0277
17,AGCCAAAG,-0.123
18,ATTCGGAC,0.182
19,GGCACCAA,0.129
20,GATGTAGA,-0.158
21,GGTCTACA,-0.0752
22,AAAGCTCG,-0.00679
23,GTAAATGA,0.0571
24,ACTAATAT,0.302
25,AACGCAAC,0.0831

row,Sequence,PBM E-score
1,ATCGGTCG,0.12
2,CGGGACAA,0.0675
3,AATTACAT,0.354
4,GGTCACTA,0.023
5,ATTTGAGG,-0.206
6,GTTGGTGA,0.146
7,ACATGAAA,-0.0596
8,CATATGGC,0.0661
9,CAGATGGC,0.0196
10,ATAGCTAG,-0.106
11,CGAGAGGA,-0.0632
12,GTCAAGGA,-0.0151
13,GCTAACCC,-0.0945
14,CCCAGCAA,-0.0856
15,AGTTGACC,0.0224
16,CCAGAGAC,-0.012
17,GATTTCTA,0.123
18,CATTGCAG,0.0842
19,CGACGGTA,0.217
